{
  "source": "PubChem BioAssay AID1508600",
  "about": "(Functional Genomics Laboratory (NCATS/FGL), 2020)",
  "note": "About 3,700 (7%) of roughly 53,000 sequences were called active.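 How the source made its calls: active means gene knockdowns whose robust z-score for IL-1 alpha signal is at least 2 or at most -2, so actives lie on both sides; inactive means the rest.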 This is one part of the list.",
  "data": [
    {"test": "Components of the Cytosolic LPS Sensing Pathway: Gene Identification via Genome-wide siRNA Screen;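 further: robust z of the log signal after scaling to non-targeting control siRNA wells of the plate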", "conditions": "RAW264.7 macrophages, IL-1a HTRF, actives lie on both sides, screened at 100 nM (by protocol), cells primed 5 h with Pam3CSK4 first", "method_in_brief": "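Three distinct siRNAs per gene were tested singly at 100 nM in RAW264.7 macrophages. Following Pam3CSK4 priming and 24 hour LipidA transfection, IL-1a secretion was read by HTRF.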", "values": [
      {"sequence": "CCAGAGGUUCACAAAACGATT against Anapc5", "z-score": "inactive: 0.848"},
      {"sequence": "GGAUGAGAGGUAAAGUAACTT against Nptxr", "z-score": "inactive: 0.802"},
      {"sequence": "GGAAAGUGACUGCAUGUUCTT against Pgp", "z-score": "inactive: -1.3"},
      {"sequence": "GGAACUAGCCUUCACUGACTT against Rabggta", "z-score": "inactive: 0.931"},
      {"sequence": "GGGCUCCUAUUGGACAAUUTT against Foxj2", "z-score": "inactive: 0.27"},
      {"sequence": "GUACUGCCCGUCCACUUUUTT against Insm2", "z-score": "inactive: -0.289"},
      {"sequence": "GGAACUCUGUAGACAGAAUTT against Lpin1", "z-score": "inactive: 0.705"},
      {"sequence": "GGAAUGUGGACAGUGGACATT against Fbxl20", "z-score": "inactive: -0.523"},
      {"sequence": "GGGAAGAAAGAAAAACAAGTT against Col5a3", "z-score": "inactive: -1.54"},
      {"sequence": "UGCCUAUGCGCGUGUUUUGTT against 4931440P22Rik", "z-score": "inactive: 1.29"},
      {"sequence": "GGGCAAAUAUCCUUAGUCATT against Lratd1", "z-score": "inactive: 0.536"},
      {"sequence": "GGAUGUCUGGAAUGAAACATT against Slc17a4", "z-score": "active: -3.16"},
      {"sequence": "CGGUACUAAACAUUACCUCTT against Olfr633", "z-score": "inactive: 0.957"},
      {"sequence": "GGGCAAGGGUCUCAAACUATT against Rangap1", "z-score": "inactive: -1.19"},
      {"sequence": "GGCCAAGUUUUCUAACUUUTT against Creg2", "z-score": "inactive: 0.0503"},
      {"sequence": "GGAGGUCCUUAUCGCUUGGTT against Vwa8", "z-score": "inactive: 0.709"},
      {"sequence": "CCCAGACAGAUUAUGUAUCTT against Btbd16", "z-score": "inactive: 0.234"},
      {"sequence": "UCAGCUUGCUCAUCAUUAATT against Wfdc13", "z-score": "inactive: -0.0724"},
      {"sequence": "GUGCAGCUAUGAGCUGUUCTT against Msrb1", "z-score": "inactive: 1.36"},
      {"sequence": "CCGAAAGAGGUGAUUGUUATT against Cdk12", "z-score": "inactive: -0.143"},
      {"sequence": "GGAUGCUCAAAACAUUGAATT against Cyp2d26", "z-score": "inactive: 1.99"},
      {"sequence": "GCCAUUCGUAGUUGAGACGTT against Ppat", "z-score": "inactive: -0.619"},
      {"sequence": "GGGUUGUAGCAUUUAAUUATT against Umodl1", "z-score": "inactive: 0.895"},
      {"sequence": "GGAGCUACAGCAGUGCUUUTT against Htr5a", "z-score": "inactive: 0.0517"},
      {"sequence": "GGUAAUGGUAAAUGAUGUGTT against Celsr3", "z-score": "inactive: -0.661"},
      {"sequence": "GCCACCAUCGUCAUGUUGATT against Ptpre", "z-score": "inactive: 0.323"},
      {"sequence": "GGAGAUAAUAAUGAAGUCGTT against Sec11c", "z-score": "inactive: 0.353"},
      {"sequence": "GGCAUAACUGGCUUUGAAGTT against Eif3k", "z-score": "inactive: -1.79"},
      {"sequence": "CGUGCUGUUAUAAUGUUGUTT against Ccl12", "z-score": "inactive: 1.1"},
      {"sequence": "CCUAUGAAGCCAGUAUCCATT against C1ra", "z-score": "inactive: -0.104"},
      {"sequence": "CGGAAUCGAAACUUAAUUUTT against Necab1", "z-score": "inactive: 0.395"},
      {"sequence": "GGAUACAGGUUUGAGAUAUTT against Crispld2", "z-score": "inactive: -1.93"},
      {"sequence": "CCAACCUGACCUCAAAAUUTT against Olfr913", "z-score": "inactive: 1.69"},
      {"sequence": "GGAAGGUCAAGUCUUUUCUTT against Tesk1", "z-score": "inactive: 1.46"},
      {"sequence": "GGUUUAUACUCAUAACCUGTT against Kifbp", "z-score": "active: 2.03"},
      {"sequence": "GGGACUUAGAAACAAUCCATT against Hsd3b4", "z-score": "inactive: 1.77"},
      {"sequence": "CCUGGAUCUACUUUUCAGUTT against Mrgprd", "z-score": "inactive: -0.519"},
      {"sequence": "GGGCCUAAUGAUUUGAUAUTT against Klhdc10", "z-score": "inactive: 0.566"},
      {"sequence": "GCUCAUGCAUGAGAAUGCCTT against Ifi30", "z-score": "inactive: -1.28"},
      {"sequence": "GGAUGACCAGAACUUCAGUTT against Zfp956", "z-score": "active: 2.84"},
      {"sequence": "GGUAUUUCGGCAACUAUCUTT against Dip2c", "z-score": "inactive: 1.79"},
      {"sequence": "GGAAAUAGAUUUUCAGCUCTT against Dnase2b", "z-score": "inactive: 0.138"},
      {"sequence": "GGACGAUCUCUACAUAGAUTT against Mrps28", "z-score": "inactive: 1.35"},
      {"sequence": "CCUACGCAAUGAUGACCAGTT against Med16", "z-score": "inactive: 0.466"},
      {"sequence": "GGAUGACUCUAUCUUUCUATT against Igfbp4", "z-score": "inactive: 0.892"},
      {"sequence": "CCUAAUUACUACCACUACATT against Csn3", "z-score": "inactive: 1.58"},
      {"sequence": "CCAUAAACGACGAAAUGAUTT against Usp11", "z-score": "inactive: 0.189"},
      {"sequence": "GGAACAAGUGGCUGAAGAUTT against Cyp11b2", "z-score": "inactive: 0.566"},
      {"sequence": "GGGUGUCAUAUGCAAAUUATT against Scube1", "z-score": "inactive: 0.274"},
      {"sequence": "GCUGGUAUGACCAAGAGAATT against Mutyh", "z-score": "inactive: 0.679"},
      {"sequence": "CCUAAUCAAAGGCACUAGATT against Lmbrd1", "z-score": "inactive: 1.46"},
      {"sequence": "CCUUUGUGGCAGUCUUUCATT against Vpreb3", "z-score": "inactive: 0.519"},
      {"sequence": "CCUGGAGAUCCCUCACUUUTT against Olfr1351", "z-score": "inactive: 1.39"},
      {"sequence": "GCGUGUUGAAUUGAGGAAGTT against Galnt11", "z-score": "active: 4.15"},
      {"sequence": "CGGCAGUGUUAAAACAUGATT against Fgfr2", "z-score": "inactive: -0.696"},
      {"sequence": "GGCAUGAACCAAGAUGCUGTT against Nr2e3", "z-score": "inactive: 0.326"},
      {"sequence": "GCCCAUCAGAUGGCAAGAUTT against Pisd", "z-score": "inactive: 1.09"},
      {"sequence": "GGACCAGUAUCAGAACAUCTT against Xrcc5", "z-score": "inactive: -0.718"},
      {"sequence": "GGCUAUGCCAUGAACUUCUTT against Inhbc", "z-score": "inactive: 0.299"},
      {"sequence": "GGAACGUGAAUCUACAGCATT against Tex43", "z-score": "active: -2.73"},
      {"sequence": "GGGUUAGGUCAUCUAAAUGTT against Slf1", "z-score": "inactive: 0.31"},
      {"sequence": "GGAAGAUAAAUCACAAUCATT against Cdc37l1", "z-score": "inactive: 0.051"},
      {"sequence": "GGUGUUUUGCUGUUAAUAATT against Foxd4", "z-score": "inactive: 0.495"},
      {"sequence": "GGCUCUUGUUGAUUGGGCUTT against Adamtsl5", "z-score": "inactive: 0.242"},
      {"sequence": "GGGUCAAAGCAGAAAAAUCTT against Hrnr", "z-score": "inactive: -1.58"},
      {"sequence": "CGAGGAUUUCUAUCCUGACTT against Ascc1", "z-score": "inactive: -0.764"},
      {"sequence": "GGGAACUCGAACAAGAAUUTT against Six1", "z-score": "inactive: 1.11"},
      {"sequence": "GGUGAAAUCCAGGAGUUUUTT against Rnd3", "z-score": "active: 2.02"},
      {"sequence": "GGGCAGCAUCGGACUAAAUTT against Agtr1a", "z-score": "active: 2.35"},
      {"sequence": "GGAUAUCAAAGACAAAGCATT against Vps53", "z-score": "active: -2.58"},
      {"sequence": "GGUAGAGCGCAGAAUUAGATT against Luc7l3", "z-score": "inactive: 0.736"},
      {"sequence": "GGACAUCGGAUUCUACACCTT against Psg19", "z-score": "inactive: 0.531"},
      {"sequence": "GCAAUUGCUUUGCAUUUACTT against Rabgap1l", "z-score": "inactive: -0.000836"},
      {"sequence": "GCACCUCGUUCACCAAUAUTT against Hs2st1", "z-score": "inactive: 1.67"},
      {"sequence": "GCUGAGACCCAGAUGCAAUTT against Mal", "z-score": "inactive: 0.858"},
      {"sequence": "CCCACUUUAUAGGACAUAUTT against Zhx3", "z-score": "inactive: -1.46"},
      {"sequence": "GGAGUGUAUGAUGCUGAUGTT against S100a9", "z-score": "inactive: 0.118"},
      {"sequence": "GCAAUUAGUAUCUAUUACCTT against Txndc17", "z-score": "inactive: -0.448"},
      {"sequence": "GGAGACAGAUUGCUACAGATT against Itga7", "z-score": "inactive: -0.884"},
      {"sequence": "GCCCGUAAAACUCUUUCAGTT against Spata31", "z-score": "inactive: 0.643"},
      {"sequence": "GGACCUGCCUUACAGCUUUTT against A430090L17Rik", "z-score": "inactive: 0.0156"},
      {"sequence": "GGCCAGGAAAGCAUUAAGATT against Trim2", "z-score": "inactive: -0.0543"},
      {"sequence": "GGCAGAUGCAAUCCAUUGGTT against Tas2r104", "z-score": "inactive: -0.729"},
      {"sequence": "GGCAUCUUUCACAGUUUUGTT against Hspa12b", "z-score": "active: 2.13"},
      {"sequence": "GGCCUUGAUAUCAACAAGATT against Pkia", "z-score": "inactive: 0.103"},
      {"sequence": "GGACUGUGCAGUUAUUGUCTT against Psma6", "z-score": "active: -2.17"},
      {"sequence": "ACAAAGAAGCGAUUUCUAUTT against Wtip", "z-score": "inactive: 1.32"},
      {"sequence": "GCAAGAACCUGGUGCGAAATT against Lrrc4b", "z-score": "inactive: -0.53"},
      {"sequence": "GCGAAAAGACCAAUAAUGGTT against Ebf1", "z-score": "inactive: -0.384"},
      {"sequence": "GGAACAUCCUUUGAAAACATT against Ptprk", "z-score": "inactive: 0.267"},
      {"sequence": "GGAAGAACUGGAAUGAUAUTT against Clec4e", "z-score": "inactive: -0.116"},
      {"sequence": "GGACGUAGUACCCAUGAAUTT against Adora2a", "z-score": "inactive: -0.275"},
      {"sequence": "GGACACUAGUCGGCUGCUUTT against Naa38", "z-score": "inactive: 0.838"},
      {"sequence": "GGGUGCCUACUUGAUCCUUTT against Hgh1", "z-score": "inactive: 1.63"},
      {"sequence": "GCUUAAAGUACGAUCAGCUTT against Wdr3", "z-score": "inactive: 0.12"},
      {"sequence": "GGAUUGUGAGGUUGUAAUGTT against Hnrnpu", "z-score": "inactive: -0.297"},
      {"sequence": "GGAAGCUAUAUAUCAAGAATT against Tcea1", "z-score": "inactive: 0.69"},
      {"sequence": "CGAGUGACAAAUGAAAUCGTT against Ercc4", "z-score": "inactive: -0.926"},
      {"sequence": "CCUCCACUUCGUGAGCGAATT against Xxylt1", "z-score": "inactive: -1.25"},
      {"sequence": "CCAGACCAGGGAGAAAUCATT against Rdh18-ps", "z-score": "inactive: -1.78"},
      {"sequence": "GGGCAAAAGCUAAUGACUCTT against 4933409K07Rik", "z-score": "inactive: 0.2"},
      {"sequence": "GGCGUGGAUGACCUAGACUTT against Actr3", "z-score": "inactive: 0.165"},
      {"sequence": "GGAUAUGUUUCUAGUAUCATT against Cd226", "z-score": "inactive: -0.0887"},
      {"sequence": "GCAGUACAUAGGACAAUACTT against Ccdc97", "z-score": "inactive: 0.0835"},
      {"sequence": "GGAUCUGAGAAAUGAAAUCTT against Slc3a1", "z-score": "inactive: -0.701"},
      {"sequence": "GGAUCUCAUUCACAGAUUATT against Rasgrp3", "z-score": "inactive: -0.562"},
      {"sequence": "GGAGAAACUGGCUUUCUCUTT against Zp3", "z-score": "inactive: 0.918"}
    ]}
  ]
}
